No constants are given. Whether binding was seen depends on the method and setting. Some entries that bind do so weakly or less than the wild type.
How the values were obtained:
human CLLD8 protein [1] = target: T1, human CLLD8 protein (human, UniProt Q96T68 1-719, limits assumed); test: yeast two-hybrid
T1 sequence: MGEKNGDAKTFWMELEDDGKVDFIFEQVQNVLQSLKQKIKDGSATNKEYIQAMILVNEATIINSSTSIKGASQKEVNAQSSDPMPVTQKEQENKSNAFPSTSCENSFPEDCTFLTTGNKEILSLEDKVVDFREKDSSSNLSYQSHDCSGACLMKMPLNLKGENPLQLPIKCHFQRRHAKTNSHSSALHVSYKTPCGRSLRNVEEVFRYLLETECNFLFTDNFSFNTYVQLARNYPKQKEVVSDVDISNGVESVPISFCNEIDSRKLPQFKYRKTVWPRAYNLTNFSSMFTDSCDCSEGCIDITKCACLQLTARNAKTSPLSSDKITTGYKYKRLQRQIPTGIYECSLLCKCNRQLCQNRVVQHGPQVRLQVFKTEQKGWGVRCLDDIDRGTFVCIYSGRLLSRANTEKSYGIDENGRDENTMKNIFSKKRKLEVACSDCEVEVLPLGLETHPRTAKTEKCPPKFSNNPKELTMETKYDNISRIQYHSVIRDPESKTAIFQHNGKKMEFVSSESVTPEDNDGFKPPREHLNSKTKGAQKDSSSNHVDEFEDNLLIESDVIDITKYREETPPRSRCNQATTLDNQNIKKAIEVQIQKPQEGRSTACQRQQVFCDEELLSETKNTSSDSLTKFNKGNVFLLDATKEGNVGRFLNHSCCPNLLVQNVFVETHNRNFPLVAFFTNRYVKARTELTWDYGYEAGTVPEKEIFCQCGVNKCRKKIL

human CLLD8 protein [2] = target: T1, human CLLD8 protein; test: yeast two-hybrid interaction profiling
human CLLD8 protein [3] = target: T1, human CLLD8 protein; test: yeast two-hybrid interaction profile compared with the functional profile

Binder	binding (human CLLD8 protein [1])	binding (human CLLD8 protein [2])	binding (human CLLD8 protein [3])
AMHGHHGWPWGMEQGCTPLG [peptide CL02A3 wt]	binds	binds	binds
AMHGHHAAPWGMEQGCTPLG [peptide CL02A3GW]	binds		
AMHGHHGWPWGMEQGCTPAA [peptide CL02A3LG]	binds		

— patent US20040014638A1 (RIGEL PHARMACEUTICALS, published 2004)
